This passage reports binding results from PMC10444971.

Chains of the proteins cited; added tags and fusions are not shown. Lines headed by an entry give the natural chain unless they say otherwise; changes in a name come on top.
UniProt Q7TQI3: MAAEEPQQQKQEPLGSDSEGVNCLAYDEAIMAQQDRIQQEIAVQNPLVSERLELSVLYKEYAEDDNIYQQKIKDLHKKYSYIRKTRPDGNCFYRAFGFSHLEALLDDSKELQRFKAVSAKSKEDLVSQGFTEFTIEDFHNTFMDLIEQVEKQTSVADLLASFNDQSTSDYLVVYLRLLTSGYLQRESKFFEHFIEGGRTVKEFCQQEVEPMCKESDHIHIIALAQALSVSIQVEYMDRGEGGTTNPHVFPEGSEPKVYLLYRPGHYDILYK

In one assay the target is T1, CCN6-FLAG (UniProt D3Z5L9).
T1 sequence: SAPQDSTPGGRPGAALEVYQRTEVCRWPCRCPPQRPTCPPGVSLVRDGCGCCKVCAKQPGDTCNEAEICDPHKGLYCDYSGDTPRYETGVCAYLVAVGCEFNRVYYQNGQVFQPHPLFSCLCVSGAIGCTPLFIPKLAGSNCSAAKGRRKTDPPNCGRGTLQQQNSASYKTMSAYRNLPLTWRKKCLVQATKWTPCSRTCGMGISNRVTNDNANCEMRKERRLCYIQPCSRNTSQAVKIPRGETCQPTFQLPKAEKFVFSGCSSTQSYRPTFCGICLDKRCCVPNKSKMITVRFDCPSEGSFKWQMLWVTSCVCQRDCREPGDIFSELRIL
In words: co-IP; 4T1 cells co-transfected with CCN6-FLAG and GFP, OTUB1-GFP or OTUB1 mutant plasmids, 24 h; RIPA whole-cell lysate; anti-FLAG antibody, Sepharose beads, 4°C; Western blot for FLAG and GFP. Background: A western blot detects proteins with antibodies after separation by electrophoresis.

In assay [1] the target is OTU domain, ubiquitin aldehyde binding 1 (OTUB1), endogenous in 4T1 cells (mouse (endogenous in 4T1)) (UniProt Q7TQI3). In words: co-IP; endogenous proteins; 4T1 cells treated with MG132 (10 μM) for 6 h before lysis; RIPA whole-cell lysate, precleared; anti-OTUB1 antibody (rabbit IgG as control), Sepharose beads, 4°C overnight; Western blot.
The target in assay [2] is purified His-OTUB1 protein (UniProt Q7TQI3). The experiment in a line: pull-down; in vitro interaction assay: purified His-OTUB1 incubated with 4T1 cell lysates at 4°C overnight, harvested with anti-His antibody and Sepharose beads; Western blot for OTUB1 and CCN6; only the target purified.

These are yes or no findings as the source states them, for the method shown. In cells and extracts the contact can be indirect. Some entries that bind do so weakly or less than the wild type. For part of these data: Where a sequence is shown, tags or fusion partners need not be part of it.

“truncated OTUB1 lacking the UBA domain (∆N OTUB1), GFP-tagged (from UniProt Q7TQI3 48-271) (domain or fragment)”: the binding result in the assay with CCN6-FLAG is “binds”.

B1: CCN6 (WNT-inducible signalling pathway protein 3), endogenous in 4T1 cells (protein, UniProt D3Z5L9 24-354)
chain: SAPQDSTPGGRPGAALEVYQRTEVCRWPCRCPPQRPTCPPGVSLVRDGCGCCKVCAKQPGDTCNEAEICDPHKGLYCDYSGDTPRYETGVCAYLVAVGCEFNRVYYQNGQVFQPHPLFSCLCVSGAIGCTPLFIPKLAGSNCSAAKGRRKTDPPNCGRGTLQQQNSASYKTMSAYRNLPLTWRKKCLVQATKWTPCSRTCGMGISNRVTNDNANCEMRKERRLCYIQPCSRNTSQAVKIPRGETCQPTFQLPKAEKFVFSGCSSTQSYRPTFCGICLDKRCCVPNKSKMITVRFDCPSEGSFKWQMLWVTSCVCQRDCREPGDIFSELRIL
For the molecule B1, the binding result in assay [1] and in assay [2] was “binds” in each case.
